Test results taken from article PMC5309968.
These are yes or no findings as the source states them, for the method shown. Binding seen in cells or lysates may run through a third protein. Some entries that bind do so weakly or less than the wild type.

By UniProt entry, the sequences of proteins in these tests, tags left out.
UniProt P03122: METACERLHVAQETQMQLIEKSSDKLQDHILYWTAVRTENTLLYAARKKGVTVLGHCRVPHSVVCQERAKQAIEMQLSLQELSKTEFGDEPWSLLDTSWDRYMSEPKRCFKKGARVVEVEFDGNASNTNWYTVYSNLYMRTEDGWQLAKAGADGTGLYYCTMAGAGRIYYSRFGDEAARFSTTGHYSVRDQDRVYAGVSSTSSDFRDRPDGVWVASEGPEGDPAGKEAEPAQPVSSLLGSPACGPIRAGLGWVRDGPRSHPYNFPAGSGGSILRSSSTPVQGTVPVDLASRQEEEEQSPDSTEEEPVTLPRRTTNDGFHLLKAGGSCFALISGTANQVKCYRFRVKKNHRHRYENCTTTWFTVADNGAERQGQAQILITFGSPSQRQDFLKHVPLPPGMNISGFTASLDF
UniProt Q6NUQ1: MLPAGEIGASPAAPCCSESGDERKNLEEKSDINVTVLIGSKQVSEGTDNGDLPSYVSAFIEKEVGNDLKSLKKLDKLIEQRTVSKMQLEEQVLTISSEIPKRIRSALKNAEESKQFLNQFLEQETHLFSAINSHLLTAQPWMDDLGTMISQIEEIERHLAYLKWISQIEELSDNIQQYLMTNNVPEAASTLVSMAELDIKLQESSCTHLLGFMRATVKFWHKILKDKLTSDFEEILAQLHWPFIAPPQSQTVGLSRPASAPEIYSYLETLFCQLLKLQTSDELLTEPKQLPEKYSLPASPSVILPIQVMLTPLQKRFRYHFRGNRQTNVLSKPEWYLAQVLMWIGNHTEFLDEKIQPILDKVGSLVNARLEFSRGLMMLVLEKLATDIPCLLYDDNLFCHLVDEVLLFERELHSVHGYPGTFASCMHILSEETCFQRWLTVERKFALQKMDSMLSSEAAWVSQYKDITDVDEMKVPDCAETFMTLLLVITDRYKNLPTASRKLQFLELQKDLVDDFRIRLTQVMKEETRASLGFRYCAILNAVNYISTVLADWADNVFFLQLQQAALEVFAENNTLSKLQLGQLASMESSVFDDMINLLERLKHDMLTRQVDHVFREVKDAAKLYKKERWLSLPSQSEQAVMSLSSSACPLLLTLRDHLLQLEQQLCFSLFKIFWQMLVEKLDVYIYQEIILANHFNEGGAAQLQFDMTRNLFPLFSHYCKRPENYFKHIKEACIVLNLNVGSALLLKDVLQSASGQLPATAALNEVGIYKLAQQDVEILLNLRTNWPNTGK

Target: bovine papillomavirus 1 (BPV1) E2 (bovine papillomavirus 1) (UniProt P03122)
Experiment: co-IP; co-IP of HA-Rint1 with BPV1 E2; data not shown

For “HA-tagged Rad50-interacting protein 1 (HA-Rint1) (from UniProt Q6NUQ1 1-792)”, the binding was “binds”.
